The labels stand for the following.
T1: Homer1 EVH1 domain
T1 chain: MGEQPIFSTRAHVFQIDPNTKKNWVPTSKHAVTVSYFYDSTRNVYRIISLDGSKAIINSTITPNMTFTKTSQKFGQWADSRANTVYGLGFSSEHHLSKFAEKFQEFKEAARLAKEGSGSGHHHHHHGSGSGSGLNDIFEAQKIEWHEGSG

B1: unnamed (peptide)
chain: LFLHQLHLGVIGSALANLISQYTLALLLFLYILGKK
B2: unnamed (peptide)
chain: APVHFSWVIGVMICCMLNIWGIILYLQLPWIAAQAG
B3: unnamed (peptide)
chain: MANINLKEITLIVGVVTACYWNSLFCGFVFDDVSAI
B4: unnamed (peptide)
chain: EYLYCVLFILSGLLFYFLFVHYKFGWAQKISKPITM
B5: unnamed (peptide)
chain: NMDEKSQRYLADMFTTCVDIRWRYMLLIFSLAFLAS
B6: unnamed (peptide)
chain: MARSLLLPLQILLLSLALETAGEEAQGDKIIDGAPC
B7: unnamed (peptide)
chain: EGFQSWMWRGLTFLLPFLFFGHFWQLFNALTLFNLA
B8: unnamed (peptide)
chain: TKALGVIQIMVGLMHIGFGIVLCLISFSFREVLGFN
B9: unnamed (peptide)
chain: SGLTAGMLMTDAGRKLYVNTWIYGTLLGCLWVTIKA
B10: unnamed (peptide)
chain: PLMTRVVERSSSMTSTMTIGKFMLALAFFAIIIAYF
B11: unnamed (peptide)
chain: HKYEGEPENAVLPLCFVVAVYFMTGPMGFYWRSSPS
B12: unnamed (peptide)
chain: DGQHIPVLFSIFCGLLVAVSYHLSRQSSDPSVLFSF
B13: unnamed (peptide)
chain: MAEQTYSWAYSLVDSSQVSTFLISILLIVYGSFRSL
B14: unnamed (peptide)
chain: RGACRIYNSTYLGRAFFGLKVALIFPVLVLLTVFIF
B15: unnamed (peptide)
chain: PDSPQEFLQKKATETILLLVSFFVVMYQMDLSLSSY
B16: unnamed (peptide)
chain: VLGMSAVISSVAHYLGLGILAFIGSTEEDDRRLGFV
B17: unnamed (peptide)
chain: LFLFIYPITLIGNLLIVLAICSDVRLHNPMYFLLAN
B18: unnamed (peptide)
chain: EANKYFFIESCIALFVSFIINVFVVSVFAEAFFGKT
B19: unnamed (peptide)
chain: MDTPRGIGTFVVWDYVVFAGMLVISAAIGIYYAFAG
B20: unnamed (peptide)
chain: SVPYAIVGGILALLVFLIICVLVGMVWCSVRQKGSC
B21: unnamed (peptide)
chain: PRVKTIARGLVGGLKNTLVHRLALIPVYPLRFSRRS
B22: unnamed (peptide)
chain: EAGLALPPTGYRCLECGDAFSLEKSLARHYDRRSMR
B23: unnamed (peptide)
chain: KSSVQEILFPLFFLFWLILISMMHPNKKYEEVPNIE
B24: unnamed (peptide)
chain: QQIPDVSPTGRYTTLVPLLFILAVAAIKEIIEDIKR
B25: unnamed (peptide)
chain: ILQPWIVVNLVVALLVGLSWLFLSYRPGMDLSEELM
B26: unnamed (peptide)
chain: SSFLFSLLPFSLSFSPAPYFLFPISLSSLLSFFLPF
B27: unnamed (peptide)
chain: LSQFVIHRSLCISTMQAVFSSVFYFASVPLYQGFLI
B28: unnamed (peptide)
chain: RLGTLKGPFRERIRQLMCPAEDLPQRNPAGPSAPAS
B29: unnamed (peptide)
chain: ALCNFAFYGGKSLYHQYIPTFHVYNLFVFLWLINFV
B30: unnamed (peptide)
chain: MRNGTVITEFILLGFPVIQGLQTPLFIAIFLTYILT
B31: unnamed (peptide)
chain: FAIGGLVGTLIVKMIGKVLGRKHTLLANNGFAISAA
B32: unnamed (peptide)
chain: NTQRKDPYYGADWGIGWWTAVVIMLIVGIITPVFYL
B33: unnamed (peptide)
chain: MLREFSKWGVEASPGKAWERKRSLLRGALGRYRGAT
B34: unnamed (peptide)
chain: YICGLLYMIGILFLLIQPCIRIIEQSRRKYMDGAHV
B35: unnamed (peptide)
chain: FLVPIAVGAALADVLILVLLAYFIGLKHHHAGYEQF
B36: unnamed (peptide)
chain: SSDIIILTITRCIAILYIYFQFQNLRQLGSKYILGI
B37: unnamed (peptide)
chain: GPKHPALKITRRYAFAHILTVLQCATVIGFSYWASE
B38: unnamed (peptide)
chain: ELNKKTPLLTEGQAICFTILGVLTSLVVLGTVVITF
B39: unnamed (peptide)
chain: LCGSALLLVSLSIAFYCIVYLEWYCGIGEYDVKYPA
B40: unnamed (peptide)
chain: SRLPAVRCLALFMGTAVLVHLALTLVWLPASAVLHE
B41: unnamed (peptide)
chain: ADMVKTGFIMNIIGVFCVFLAVNTWGRAIFDLDHFP
B42: unnamed (peptide)
chain: FIYYHAMIFQSAMFTQGFLFLFLMIWTSFYMVTIFL
B43: unnamed (peptide)
chain: SLPESLELSSPRSPETDWGRPPGGDKDLASPHLGLG
B44: unnamed (peptide)
chain: YPPGPLAPPQPFGPGFVPPPPPPPYGPGRIPPPPPA

This is an account of results in the supplement of paper PMC11237882.

The list shows a part of the results. Values are worked out from sequencing counts and are noisy.

In this experiment the target is T1, Homer1 EVH1 domain. The experiment is described as follows: enrichment score (AUC of log2 frequency ratio across FACS sorting rounds) (log2 AUC); higher = stronger enrichment for Homer1 EVH1 binding.
With B1, the enrichment score amounted to 2.57.

For the molecule B2, the enrichment score turned out to be 3.52.

With B3, the enrichment score was -0.918.

In the case of B4, the enrichment score is 1.1.

Turning to B5, the enrichment score was found to be 2.88.

As to B6, the enrichment score was determined as 2.97.

B7: the enrichment score was 1.26.

Take B8: the enrichment score was -0.732.

Turning to B9, the enrichment score worked out at 0.997.

For the molecule B10, the enrichment score is -3.56.

Regarding B11, the enrichment score is -0.0105.

Take B12: the enrichment score is 2.52.

For B13, the enrichment score was 1.53.

In the case of B14, the enrichment score was -1.71.

Regarding B15, the enrichment score was 1.47.

For B16, the enrichment score worked out at 0.863.

Turning to B17, the enrichment score is -0.75.

For B18, the enrichment score was 3.

Regarding B19, the enrichment score stood at 1.02.

As to B20, the enrichment score was -2.16.

Consider B21, for which the enrichment score was -2.7.

As to B22, the enrichment score worked out at 5.04.

B23: the enrichment score was determined as 2.25.

Regarding B24, the enrichment score was 0.534.

For the molecule B25, the enrichment score turned out to be 3.7.

B26: the enrichment score was -1.04.

Consider B27, for which the enrichment score came out at 1.67.

Take B28: the enrichment score was -2.53.

On to B29, for which the enrichment score is -0.466.

In the case of B30, the enrichment score was 1.63.

Regarding B31, the enrichment score is 0.253.

Consider B32, for which the enrichment score was -2.53.

Regarding B33, the enrichment score worked out at 2.93.

Regarding B34, the enrichment score was found to be 2.54.

With B35, the enrichment score stood at 5.15.

For the molecule B36, the enrichment score was -1.74.

B37: the enrichment score stood at 0.639.

In the case of B38, the enrichment score is 3.27.

On to B39, for which the enrichment score is 1.61.

With B40, the enrichment score turned out to be 3.55.

As for B41, the enrichment score was 2.04.

In the case of B42, the enrichment score is -0.293.

In the case of B43, the enrichment score was 6.29.

B44: the enrichment score was 2.1.
